Test results: US7235577B1 (priority 2000, dated 2007)

Target: Jurkat-CRAC
Experiment: Selectivity patch clamp, Jurkat CRAC channels
Format: cell-based, human
Conditions: monovalent currents with Na+ as charge carrier
Procedure: L929 cells stably expressing mKv1.1, rKv1.2, mKv1.3, and mKv3.1 and MEL cells stably expressing hKv1.5 have been previously described (Grissmer 1994, Mol. Pharmacol. 45: 1227). hKv1.4 and rKv4.2 were stably expressed in LTK (HK1–7). Channel expression was induced 8–12 h before the electrophysiological experiments by 4 μM dexamethasone (Sigma). HEK-293 cells stably expressing the skeletal muscle sodium channel hSkM1 (SCN4A) were generated in the laboratory of Dr. F. Lehmann-Horn. HEK-293 cells stably expressing hSloα were obtained from Dr. Andrew Tinker (Center for Clinical Pharmacology, University College London). L929, MEL, LTK and HEK cells were maintained in DMEM containing 10% heat-inactivated fetal calf serum (Summit Biotechnology, Fort Collins, Colo.) and 250 μg/ml G418 (Life Technologies, Inc.). Rat basophilic leukemia (RBL) cells were maintained in Eagle's minimum essential medium with 2 mM L-glutamine and 10% fetal calf serum. CHO cell were maintained in F12K media (ATCC). Human leukemic Jurkat E6–1 cells were cultured in RPMI 1640 supplemented with 10% fetal calf serum and 1 mM L-glutamine. T84 cells were maintained in a 1:1 mixture of Ham's F12 medium and DMEM with 2.5 mM L-glutamine and 10% fetal calf serum.
Recordings from the Jurkat SKCa channel were made in K^+ aspartate Ringer (Na^+ was replaced by K^+) with the same internal pipette solution. […]

Clc1ccccc1C(c1ccccc1)(c1ccccc1)n1ccnc1 [Clotrimazole, reference compound]
Block of Jurkat-CRAC (Ca): no effect at 10 μM (n =
